Measured values published in article doi:10.64898/2025.12.23.696137.
Results are given in words; binding and its absence hold for the method and conditions named. In cells and extracts the contact can be indirect. Some binding calls cover weakened binding; strength is not graded here. For some assays here: Tags and fused reporters may be left off the sequences shown.

The chains behind the UniProt entries cited, without tags or fusion partners. Where a name states a change or a piece, a line headed by the entry shows the natural chain unless it says otherwise. Residues count along the entry.
UniProt Q9EPL4, whole entry, looked up, stated change not applied: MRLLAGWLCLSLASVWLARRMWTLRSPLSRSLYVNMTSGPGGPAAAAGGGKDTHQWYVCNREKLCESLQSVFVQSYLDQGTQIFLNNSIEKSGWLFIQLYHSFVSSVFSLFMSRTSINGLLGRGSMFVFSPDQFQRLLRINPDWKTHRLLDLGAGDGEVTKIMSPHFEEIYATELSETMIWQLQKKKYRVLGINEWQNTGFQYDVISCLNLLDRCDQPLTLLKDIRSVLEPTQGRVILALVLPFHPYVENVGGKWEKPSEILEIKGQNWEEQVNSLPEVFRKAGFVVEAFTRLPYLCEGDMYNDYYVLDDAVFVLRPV
UniProt Q9EPL4, 19-318: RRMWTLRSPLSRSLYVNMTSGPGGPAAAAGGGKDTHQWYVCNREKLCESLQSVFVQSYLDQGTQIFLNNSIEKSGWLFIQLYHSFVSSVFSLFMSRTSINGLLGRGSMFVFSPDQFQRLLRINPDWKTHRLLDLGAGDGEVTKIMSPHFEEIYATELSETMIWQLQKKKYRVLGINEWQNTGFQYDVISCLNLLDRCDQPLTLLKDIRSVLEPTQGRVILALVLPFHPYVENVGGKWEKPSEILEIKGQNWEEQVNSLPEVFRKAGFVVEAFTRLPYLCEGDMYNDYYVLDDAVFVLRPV

Tests used:
[1] = target: METTL9-FLAG wild type (mouse) (mouse) (UniProt Q9EPL4); assay: co-IP
[2] = target: METTL9-FLAG 2NA mutant (N35A/N86A, mouse) (mouse) (UniProt Q9EPL4); assay: co-IP

| binding [1] | binding [2] | Binder |
| --- | --- | --- |
| binds |  | calnexin (protein, UniProt P27824 21-592) HDGHDDDVIDIEDDLDDVIEEVEDSKPDTTAPPSSPKVTYKAPVPTGEVYFADSFDRGTLSGWILSKAKKDDTDDEIAKYDGKWEVEEMKESKLPGDKGLVLMSRAKHHAISAKLNKPFLFDTKPLIVQYEVNFQNGIECGGAYVKLLSKTPELNLDQFHDKTPYTIMFGPDKCGEDYKLHFIFRHKNPKTGIYEEKHAKRPDADLKTYFTDKKTHLYTLILNPDNSFEILVDQSVVNSGNLLNDMTPPVNPSREIEDPEDRKPEDWDERPKIPDPEAVKPDDWDEDAPAKIPDEEATKPEGWLDDEPEYVPDPDAEKPEDWDEDMDGEWEAPQIANPRCESAPGCGVWQRPVIDNPNYKGKWKPPMIDNPSYQGIWKPRKIPNPDFFEDLEPFRMTPFSAIGLELWSMTSDIFFDNFIICADRRIVDDWANDGWGLKKAADGAAEPGVVGQMIEAAEERPWLWVVYILTVALPVFLVILFCCSGKKQTSGMEYKKTDAPQPDVKEEEEEKEEEKDKGDEEEEGEEKLEEKQKSDAEEDGGTVSQEEEDRKPKAEEDEILNRSPRNRKPRRE |
|  | binds | METTL9-FLAG 2NA mutant (N35A/N86A, mouse) (enzyme, UniProt Q9EPL4 19-318) RRMWTLRSPLSRSLYVAMTSGPGGPAAAAGGGKDTHQWYVCNREKLCESLQSVFVQSYLDQGTQIFLANSIEKSGWLFIQLYHSFVSSVFSLFMSRTSINGLLGRGSMFVFSPDQFQRLLRINPDWKTHRLLDLGAGDGEVTKIMSPHFEEIYATELSETMIWQLQKKKYRVLGINEWQNTGFQYDVISCLNLLDRCDQPLTLLKDIRSVLEPTQGRVILALVLPFHPYVENVGGKWEKPSEILEIKGQNWEEQVNSLPEVFRKAGFVVEAFTRLPYLCEGDMYNDYYVLDDAVFVLRPV |
